Data source: PubChem BioAssay AID1259254 (NCATS, 2017)

- Aim: 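Gene knock-downs that lead to re-replication, shown by excess G2 DNA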 (primary screen)
- Cell system: human HCT116 colorectal cancer cells
- Reagents: single siRNA against human genes
- Timing: 3 days
- Read-out: 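Imaged Hoechst DNA stain sorts each cell into a cycle phase by DNA amount; per plate, G2 fraction set to 0% for non-targeting and 100% for GMNN siRNA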
- Reading the numbers: G2 robust z-score and G2 cells, % of GMNN control: higher = more G2 cells, more excess DNA replication; raw share of cells in G2: higher = larger share of cells with G2 DNA content
- Active means: 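An siRNA counts as active if its G2 robust z-score lies at least 5 MADs above the screen median; here such calls match roughly 38% of GMNN control or more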
In all, the deposit lists about 59,000 reagents; this is a part drawn at random. In the full data, about 1,550 (2.6%) are marked active. 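G2 share is only a proxy for re-replication; each gene was hit by three separate siRNAs, and active genes were retested.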 The raw values are shown without normalisation. Reagents against one gene are numbered here. Not stated in the record: the amount of reagent.

target	reagent	G2 robust z-score	G2 cells, % of GMNN control	raw share of cells in G2 (%)	Call
SF3A3 (splicing factor 3a subunit 3)	1	3.17	25.2	16.7	inactive
SF3A3 (splicing factor 3a subunit 3)	2	1.64	14.5	8.53	inactive
SF3A3 (splicing factor 3a subunit 3)	3	4.76	36.4	20.8	inactive
TMEM256 (transmembrane protein 256)	1	-0.638	-1.52	2.61	inactive
TMEM256 (transmembrane protein 256)	2	0.375	5.6	4.98	inactive
TMEM256 (transmembrane protein 256)	3	-1.2	-5.48	1.59	inactive
SMARCAD1 (SNF2 related chromatin remodeling ATPase with DExD box 1)	1	3.47	27.4	14.3	inactive
SMARCAD1 (SNF2 related chromatin remodeling ATPase with DExD box 1)	2	0.479	6.34	6.98	inactive
SMARCAD1 (SNF2 related chromatin remodeling ATPase with DExD box 1)	3	-0.177	1.72	7.18	inactive
LOC727978 (retired record)	1	-0.141	1.97	4.35	inactive
LOC727978 (retired record)	2	0.398	5.77	5.73	inactive
LOC727978 (retired record)	3	0.83	8.81	5.98	inactive
TSC1 (TSC complex subunit 1)	1	-1.32	-6.32	2.33	inactive
TSC1 (TSC complex subunit 1)	2	0.402	5.79	6.19	inactive
TSC1 (TSC complex subunit 1)	3	0.786	8.5	6.35	inactive
ZNF787 (zinc finger protein 787)	1	-0.0325	2.74	4.03	inactive
ZNF787 (zinc finger protein 787)	2	0.166	4.14	4.6	inactive
ZNF787 (zinc finger protein 787)	3	-0.905	-3.4	2.33	inactive
SCRN1 (secernin 1)	1	0.796	8.57	9.2	inactive
SCRN1 (secernin 1)	2	-0.149	1.92	4.74	inactive
SCRN1 (secernin 1)	3	-0.153	1.89	4.09	inactive
ANKS6 (ankyrin repeat and sterile alpha motif domain containing 6)	1	-0.34	0.578	3.79	inactive
ANKS6 (ankyrin repeat and sterile alpha motif domain containing 6)	2	-0.437	-0.105	3.09	inactive
ANKS6 (ankyrin repeat and sterile alpha motif domain containing 6)	3	-0.61	-1.32	2.77	inactive
CHD7 (chromodomain helicase DNA binding protein 7)	1	3.94	30.7	19.9	inactive
CHD7 (chromodomain helicase DNA binding protein 7)	2	-0.8	-2.66	3.49	inactive
CHD7 (chromodomain helicase DNA binding protein 7)	3	-0.793	-2.61	3.24	inactive
RNF145 (ring finger protein 145)	1	-0.58	-1.12	4.23	inactive
RNF145 (ring finger protein 145)	2	0.637	7.45	7.43	inactive
RNF145 (ring finger protein 145)	3	5.28	40.1	25.1	active
LOC728903 (retired record)	1	-0.464	-0.297	2.99	inactive
LOC728903 (retired record)	2	-0.972	-3.87	2.45	inactive
LOC728903 (retired record)	3	0.307	5.12	4.97	inactive
PDE7B (phosphodiesterase 7B)	1	0.631	7.41	9.52	inactive
PDE7B (phosphodiesterase 7B)	2	7.66	56.9	23.1	active
PDE7B (phosphodiesterase 7B)	3	-0.645	-1.57	3.48	inactive
LOC112268070	1	-1.33	-6.39	1.89	inactive
LOC112268070	2	-1.33	-6.38	1.58	inactive
LOC112268070	3	0.519	6.62	6.28	inactive
ZNF286A (zinc finger protein 286A)	1	-0.244	1.25	3.23	inactive
ZNF286A (zinc finger protein 286A)	2	-0.746	-2.28	4.88	inactive
ZNF286A (zinc finger protein 286A)	3	-1.35	-6.56	1.57	inactive
FLNA (filamin A)	1	-0.135	2.02	6.25	inactive
FLNA (filamin A)	2	-1.16	-5.18	2.19	inactive
FLNA (filamin A)	3	0.852	8.96	7.03	inactive
GYG2 (glycogenin 2)	1	2.03	17.3	10.9	inactive
GYG2 (glycogenin 2)	2	-0.0311	2.75	6.23	inactive
GYG2 (glycogenin 2)	3	-0.762	-2.39	3.45	inactive
DEFB1 (defensin beta 1)	1	0.757	8.29	6.77	inactive
DEFB1 (defensin beta 1)	2	4.54	34.9	21.7	inactive
DEFB1 (defensin beta 1)	3	-0.719	-2.09	3.32	inactive
PHETA1 (PH domain containing endocytic trafficking adaptor 1)	1	1.7	14.9	8.82	inactive
PHETA1 (PH domain containing endocytic trafficking adaptor 1)	2	3.63	28.5	11.7	inactive
PHETA1 (PH domain containing endocytic trafficking adaptor 1)	3	-0.687	-1.87	2.42	inactive
OSCP1	1	-0.702	-1.97	1.87	inactive
OSCP1	2	-0.544	-0.858	3.85	inactive
OSCP1	3	3.58	28.2	12	inactive
HEPN1 (hepatocellular carcinoma, down-regulated 1)	1	0.148	4.01	5.17	inactive
HEPN1 (hepatocellular carcinoma, down-regulated 1)	2	0.619	7.32	6.19	inactive
HEPN1 (hepatocellular carcinoma, down-regulated 1)	3	-0.799	-2.65	2.22	inactive
SLC6A19	1	1.24	11.7	8.56	inactive
SLC6A19	2	0.811	8.67	8.34	inactive
SLC6A19	3	-0.113	2.18	6.84	inactive
ACVR1 (activin A receptor type 1)	1	-0.447	-0.179	5.55	inactive
ACVR1 (activin A receptor type 1)	2	-1.43	-7.08	3.02	inactive
ACVR1 (activin A receptor type 1)	3	-0.918	-3.49	2.79	inactive
TMEM258 (transmembrane protein 258)	1	-0.374	0.335	5.46	inactive
TMEM258 (transmembrane protein 258)	2	0.0577	3.37	5.32	inactive
TMEM258 (transmembrane protein 258)	3	-0.896	-3.34	2.22	inactive
